The whole screen tested about 52,000 sequences, of which about 210 (0.4%) were called active.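 Rule for the calls: active = gene whose silencing raises cell survival under the drug, median off-target-corrected z-score across its silencing RNAs 2 or more; inactive = the rest.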 This is one part of the list.
assay: Resistance to Poly (ADP-Ribose) Polymerase inhibitor: Gene Identification via Genome-wide siRNA Screen; conditions: mouse BRCA2 R2336H ES cells, olaparib, CellTiter-Glo viability; active compounds read high
How it was run: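 Genome-wide siRNA screen (3 siRNAs/gene, 20 nM) in mouse ES cells carrying hypomorphic BRCA2 R2336H; olaparib 500 nM added 48 h post-transfection, CellTiter-Glo viability 72 h later. Normalized to plate-median negative control; MAD z-scores, gene median, seed-adjusted.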

Sequence | z-score
GGGUUUAUAAUUGGGAUGUTT against Vbp1 | inactive: 0.413
GGUGGAGAAGGCAUGAAGATT against Amn | inactive: 0.338
GUACUUCACACCAGUUACATT against Olfr308 | inactive: 0.12
CCAGCUUGUUACUAAGUAATT against Mgat3 | inactive: -0.486
GCACUGCAUAUUCCGCACUTT against Nubp2 | inactive: -1.03
GGUAAAAAGGGAUCACUCUTT against Igfbp7 | inactive: -0.151
GGGUCUGCCGUCAUCCAUATT against Acp6 | inactive: 1.48
GGCCCAGAACAGAAAACUCTT against 5930406N14Rik | inactive: -0.395
GGCGAGCAUCGCUAUUGACTT against 2700088M22Rik | inactive: 0.155
GGUGCUCAGGAGGGAAUCUTT against LOC382137 | inactive: 1.85
CCUGUCAAUGAAACCAAGCTT against 2810437L13Rik | inactive: 0.0972
GGAAUACCUUGGAUGGCUATT against Nfe2l1 | inactive: 0.766
GGAUGAUGCUCGUUCUCAGTT against 4932422E22Rik | inactive: 1.55
CGUAACACUGCCUUUGAAUTT against Ube4b | inactive: -0.534
GGCUCAGGCAUUGUAACCATT against Dnm3 | inactive: -1.33
GGCAGAGAAUUUUUUGUGGTT against Ddah1 | inactive: 0.637
CCGAUGAUCAGAGAAACAGTT against Prkar2b | inactive: -1.75
CGCCCAUGAUGAAUCCUUUTT against Olfr1416 | inactive: 1.19
CCCUUGCCUCAAAGAUCUUTT against 1700018C11Rik | inactive: 0.0885
CGAUCUUGACCAAAACAAUTT against Fbxo30 | inactive: -0.421
GGGAAAGAAAACAAAGGAATT against Cdgap | inactive: 0.236
GGAAGACGUAAUAAAGUUATT against BC026978 | inactive: 0.539
GGUCUUGGAGGAUCCCAAUTT against 1700025D03Rik | inactive: 0.607
GCUACGAGCAGUUUUUAUUTT against Ptgs1 | inactive: 0.753
GCCACGGAAAAUAGGGAAGTT against Irf7 | inactive: 0.648
GCAAGUUGGCGUGAAGAUATT against Col9a1 | inactive: -0.00285

Sequence | z-score
GGAGAUAAUAAUGAAGUCGTT against 1810029G24Rik | inactive: 0.247
GGAAUAUGUUUAGCAUCUGTT against AW556797 | inactive: 0.876
CGUGGAAAAUGAUCAACACTT against LOC434320 | inactive: -0.281
CCCGAAAGACAUGUAUUCGTT against Mrps18b | inactive: 1.22
CGACCUUCAAGGCAAUAUUTT against Anapc2 | inactive: -2.06
GGUGAUGGCUGUUCCUUUCTT against Zdhhc2 | inactive: -0.551
GGUUCUGAUAUACGUGUUUTT against Rraga | inactive: 0.309
GCUAUUCUGUCUACGUGUATT against Hist2h2bb | inactive: 0.841
GCCUCAUUAUGAGUUGGCATT against Olfr1419 | inactive: -0.0432
CCGCUUGAAUCUUAGUGAUTT against Hoxc12 | inactive: -0.269
GGCCUUCAUCUUCAAGUACTT against Cmkor1 | inactive: -0.0264
GGUUGCUAGAAAAAUGAAGTT against 4933421G18Rik | inactive: 0.866
GGAACCCAUCAGCUACAUGTT against 1700008E09Rik | inactive: -0.285
GCACUACCGCAUCAUGUAUTT against Csk | inactive: 1.09
CGUGCUAAACAUUGACACCTT against Stx1b1 | inactive: -0.664
CCACCUGAAUCAUUACUCATT against Rdhs | inactive: -0.857
GGAGAAGACCAUAAAGAAGTT against E030034P13Rik | inactive: 0.36
GGCCAGUCAAUUCUUGCUUTT against E030018N11Rik | inactive: 0.43
GGGAUCAAAGAUCAGUUAATT against 2700059L22Rik | inactive: 0.231
GCAGUUUGCACGAGAUCGATT against Myd116 | inactive: 0.38
GGUCACAAAGAAGAAUCACTT against 4632417D23 | inactive: 0.717
GGAAACGUGGAACAUAAGATT against Gapds | inactive: -0.726
CCAAGUGACUUUAAGGAUGTT against Pcolce | inactive: 0.886
GCCAGAGACCCAAAUCAGATT against B630019A10Rik | inactive: 0.814
CCAUAAGAGGCUUACCAAATT against Ndrg3 | inactive: -0.191
GCACUCAUUUUUGCCCUGGTT against Gpr103 | inactive: -0.541

Given as labelled records: part of the list above
GGAAUACCUUGGAUGGCUATT against Nfe2l1
  z-score: inactive: 0.766
GGAUGAUGCUCGUUCUCAGTT against 4932422E22Rik
  z-score: inactive: 1.55
CGUAACACUGCCUUUGAAUTT against Ube4b
  z-score: inactive: -0.534

The list continues:

Sequence | z-score
AUCCAUUUUGUGCUAGGCATT against 5930434B04Rik | inactive: 0.91
GGAAUAUCGGACUUUUUCATT against C79407 | inactive: -0.0191
GGCAAAUCAAGAGUAUUUUTT against C87436 | inactive: 0.574
GCCUAAUCCCUUAAUCUACTT against Oas1g | inactive: -0.635
GGCAUCUUUCAGUUUAUAUTT against Spic | inactive: 0.57
GGAAUCUUUUAUAAACACCTT against Abcc12 | inactive: 0.802
GCCCAUUUUUUUAGAUAUCTT against Rbl1 | inactive: 1.14
GGUGAACCUGGAAGAACUATT against Manea | inactive: -0.0653
CCUCUGUGACCUUUCAUGATT against Dhrsx | inactive: 0.255
GGGUCAUGUCUGAAUUAAATT against 3110001K24Rik | inactive: -0.2
CCCACAACUGCAAAUUGUGTT against Olfr782 | inactive: 0.0524
GGCUCCUGAUUGAACAAAATT against Plod1 | inactive: 0.091
GGUAUCUCAGUCACGAAGATT against Rora | inactive: 1.15
CGUGUAUUUUACAAAGAGUTT against LOC432589 | inactive: 0.195
GGGAUGAACGAAAUCAGUCTT against Myo5a | inactive: -1.26
GGUAUCAAGGUGAAGUUGATT against 1-Sep | inactive: -0.0308
GGCACAGAAAAAGAAAAUUTT against Usp3 | inactive: -1.85
GGACCAAGGAUCUUGACCUTT against Rax | inactive: 1.35
GCAUUCAAUCUGCAGAGGGTT against Olfr888 | inactive: 0.325
CCACUUUUUUAGAUCCCUGTT against AA960436 | inactive: -0.149
GGUUCUGAGUAUUUAAAGCTT against C630002B14Rik | inactive: 0.728
GGAUACGAAAACGACUGCATT against 4930402E16Rik | inactive: 1.31
GGGAAUCCUAGACAUGCUGTT against Nphp4 | inactive: -0.682
UGCAAAAAACGGAACAAUCTT against Gzmd | inactive: -0.434
GCGAGAACAGCAAUAGUUCTT against Spag4 | inactive: 1.22
CCCAUCAAAAGAAUCCACATT against Snrp70 | inactive: -1.66

Sequence | z-score
GGCCAACACCUUUGAUGGATT against Abtb1 | inactive: 1.01
GGAGUUUGUAAGGUCAUGUTT against Galt | inactive: 0.0602
GGGACACAUGGAGAUACUGTT against Ankrd2 | inactive: -1.28
CCUGGAGAUUAGCUACGCCTT against LOC329416 | inactive: -0.649
CCCUAUGAGCAAAUCACAUTT against Ppp3cc | inactive: -0.197
CCACUUUAAAGGCUCUUCUTT against Hist1h3g | inactive: 0.623
CCAUCAAUGUGCAGAAAUCTT against 9030612M13Rik | inactive: 1.49
GCGACAACUGUGAUAUACCTT against Liph | inactive: -0.143
GGACAUGGAACUGGAUGAATT against C2ta | inactive: -0.943
GGCACCAGGUAAAGCAGUATT against Mitf | inactive: 2.72
GGAAAGAUGAGGAAUGUUCTT against Tbx5 | inactive: 0.076
GGUCCUAACAUCCAGAGUGTT against B830013J05Rik | inactive: -1.51
GGCAACACUGUUUUAACCGTT against D430020F16 | inactive: -0.974
CCAGAACCGUUUGAGGAGATT against Mrpl2 | inactive: -0.416
GCUCUUGCUACUUUUUUCUTT against Olfr823 | inactive: 0.431
GCCAGGAUUGGAUGAAAUATT against Ace2 | inactive: 0.198
GGUUCUCUACAAAGUAAGUTT against 6030458H05 | inactive: -0.272
CCUCUACUCAAAUUCUUGUTT against Ugt1a2 | inactive: -0.142
GGUACUUUGGAGAUUGUAATT against Rdh14 | inactive: -0.931
GGGACACUUUCACUUGUUCTT against 1110007A06Rik | inactive: -0.543
GGUCAGAAAUUCUAAGUUGTT against Gpatc2 | inactive: 0.495
CCAAGAGCCUCUUAAUUACTT against Syt9 | inactive: -0.71
GCUAGAGGCUCAAAUACAGTT against BC018222 | inactive: -1.19
GGACUUCAGUAUCAAUUGATT against Serpinb7 | inactive: 0.355
GGUUUGGUUGAAAUUGAACTT against Smc5l1 | inactive: -0.0777

Single values from the list.
In z-score, CGUGUAUUUUACAAAGAGUTT against LOC432589 is listed with inactive: 0.195
In z-score, GGACAUGGAACUGGAUGAATT against C2ta is listed with inactive: -0.943

Reference: PubChem BioAssay AID1347423 (Functional Genomics Laboratory (NCATS/FGL), 2020)
